Values of other authors, collected in patent US20050043239A1, “Methods of inhibiting immune responses stimulated by an endogenous factor” (priority 2003, published 2005).
At least one structure is not confirmed: it was looked up by name or label, or the drawing left a doubt.

System: neutrophils
Conditions: literature (Davies et al. 2000; Vlahos et al. 1995); cited from earlier work

## O=c1cc(N2CCOCC2)oc2c(-c3ccccc3)cccc12 [LY294002]
  fMLP-stimulated superoxide generation: reduce
